For one assay, the system named is T. gondii. Briefly: Plaque suppression / protection of HS68 monolayer from T. gondii. The following applies: MIC plaque suppression relative to IC50 tachyzoite count. The assay is classed as cell-based, Toxoplasma gondii. Here is the method: Proliferation assays: HS68 cells were replica plated in 48-well dishes, and grown to confluence prior to infection with 5-10×10^4 freshly purified T. gondii tachyzoites/well. After 2 hours, the media and non-infective tachyzoites were removed, and replaced with RPMI medium containing 2% fetal bovine serum plus 1 mM sodium pyruvate, penicillin (100 U), streptomycin (100 U) and test agent or a vehicle control. The proliferation assays were terminated 48-72 hours post-infection when the untreated cells were heavily infected. All of the culture media were removed from the wells, and the tachyzoites in the media were fixed by dilution (1:1) into phosphate-buffered saline containing 10% formaldehyde. The tachyzoites were collected by brief centrifugation (30 seconds, […]) at room temperature using a tabletop microfuge. The tachyzoites were resuspended in 100 ul of phosphate-buffered saline, and duplicate aliquots were counted using a hemocytometer. IC50 values, the concentrations of inhibitors necessary to decrease the number of tachyzoites in the medium by 50%, were determined for each experiment using Prism GraphPad version 4.0 to fit the concentration-response data to a sigmoidal curve. […] The minimum inhibitory concentration (MIC) of compounds that suppressed Toxoplasma-induced lysis of the HS68 cells was determined visually by counting the number of plaques/well in the monolayer.

Another assay has as its system T. gondii tachyzoites. Put plainly: T. gondii tachyzoite proliferation assay in HS68 cells (tachyzoite count). The assay is classed as cell-based. The conditions noted are these: Toxoplasma gondii. Here is the method:
Parasite propagation—The RH strain of Toxoplasma gondii was grown in BM bovine macrophage cells or HS68 human foreskin fibroblast cells obtained from the American Type Culture Collection (Rockville, Md.). HS68 cells were grown in RPMI 1640 medium (Mediatech, Inc., Herndon, Va.) plus 10% fetal bovine serum (Atlanta Biologicals, Lawrenceville, Ga.), 1 mM sodium pyruvate and 100 U/ml each of penicillin and streptomycin. Parasites were harvested from infected cultures of HS68 cells growing in T-75 cm^2 flasks. After removing the culture medium, the cells were scraped into 5 ml of phosphate-buffered saline and a cell lysate obtained by passing through a 26-gauge needle. To purify the parasites, the cell lysate was filtered through a 3 micron (micrometer) filter.
Proliferation assays: HS68 cells were replica plated in 48-well dishes, and grown to confluence prior to infection with 5-10×10^4 freshly purified T. gondii tachyzoites/well. […] The tachyzoites were resuspended in 100 ul of phosphate-buffered saline, and duplicate aliquots were counted using a hemocytometer. […] The minimum inhibitory concentration (MIC) of compounds that suppressed Toxoplasma-induced lysis of the HS68 cells was determined visually by counting the number of plaques/well in the monolayer.

For assay [1], the system named is MCF-7 human breast cancer cells. Briefly: ESR free radical (ROS) measurement in MCF-7 cell suspensions with DMPO. The assay is classed as cell-based. The conditions noted are these: 200 nM, 1×10^6 MCF-7 cells, 5 min at 37° C. Here is the method:
Free Radical Measurements: All ESR measurements were conducted using a Bruker EMIR spectrometer (Bruker Instruments Inc., Billerica, Mass.) and a flat-cell assembly. Hyperfine couplings were measured (to 0.1 G) directly from magnetic field separation using potassium tetraperoxochromate (K3CrO8) and 1,1-diphenyl-2-picrylhydrazyl as reference standards. The relative radical concentration was estimated by multiplying half of the peak height by (ΔHpp)^2, where (ΔHpp) represents peak-to-peak width. The Acquisit program was used for data acquisitions and analyses. MCF-7 cells (2.0×10^6 cells/60-mm^2 dish) were harvested 48 h after plating by trypsinization and collected at room temperature by centnfugation (225 g, 5 min). Cells were washed once with ice-cold PBS and resuspended in ice-cold PBS at 2×10^6 cells/ml. Radical production was measured in the presence of the spin trap 5,5-dimethyl-1-pyrroline-N-oxide (DMPO; Aldrich Chemical Co., Milwaukee, Wis.). DMPO (200 mM) and 1×10^6 cells test agents were mixed in 1.0 ml of PBS, incubated at 37° C. for 5 mm, and then transferred to a flat cell for ESR measurements.

Structures are written as SMILES. Like-named read-outs stand apart in the source and are kept apart here.

For the compound `O=C(CCCCCCC(=O)Nc1ccccc1)NO` [SAHA, suberoylanilide hydroxamic acid], in the assay with T. gondii, the “MIC IC50 (ratio MIC/IC50)” value was 4.8. For the same compound, the half-inhibitory concentration (IC50) was 0.083 ± 0.04 µM in the assay with T. gondii tachyzoites (RH strain T. gondii in HS68 cells, 48-well plate, 48-72 hours post-infection, mean+/-SEM, read-out: IC50 (uM) Tachyzoite Count) and 0.083 µM with T. gondii tachyzoites (RH strain in HS68 cells, average of independent experiments, read-out: IC50 T. gondii tachyzoites). The “relative peak heights of the ESR signals (mean±range, n=2)” value in assay [1] turned out to be 98 mm.
